The name of at least one read-out is uncertain.
Experiment: phase 1 single agent study: pharmacokinetic analysis
Assay type: in vivo, human patients
Conditions: 250 mg QD, 19 patients
Protocol: A preliminary pharmacokinetic analysis has been performed on the compound of formula 2 concentration data from the patients in the Phase 1 study. In the higher dose cohorts in that study, blood specimens for pharmacokinetics were collected on Day 1 and 15 of Cycle 1 at the following times: just prior to dosing and at 0.5, 1, 2, 4, 6, 8, 12, 16, and 24 hours post-dose. Blood specimens for pharmacokinetics were also collected prior to and 2 hours after dosing on Days 3, 5, and 8 of Cycle 1. […] The 1% value of the cumulative distribution of the data is 2000 ng·hr/mL and the 99% value is 25000 ng·hr/mL. […] For instance, the 99% value for a dose of 300 mg is predicted to be 25000 ng·hr/mL times 1.2 (300 divided by 250) which equals 30000 ng·hr/mL. The 1% value for a dose of 125 mg is predicted to be 2000 ng·hr/mL times 0.5 (125 divided by 250) which equals 1000 ng·hr/mL. Similar calculations provide predictions of the 1% (lower) and 99% (upper) values of the cumulative distribution of 24-hour AUC values for doses of 150 mg, 180 mg, 260 mg, and 280 mg.

**Q.** With `Cl.NC(=O)c1c(OCc2c(F)cc(Br)cc2F)nsc1NC(=O)NCCCCN1CCCC1` [compound of formula 2] as the compound, how does the “median Tmax (time of occurrence of Cmax)” value read?
**A.** 4 h

From patent US20050234115A1, “Dosage forms and methods of treatment using VEGFR inhibitors” (Pfizer Inc., priority 2004, published 2005)
